Test results reported in PMC3079617.
No constants are given. Whether binding was seen depends on the method and setting. Some binding calls cover weakened binding; strength is not graded here. Sequences can lack the tags named with a protein. Blank lines part the entries; values can stand above or below the binder they belong to.

Biological target: DBD-bJun (DNA binding domain of PhaR fused to the bZIP domain of Jun)
Assay: two-hybrid; bacterial two-hybrid in E. coli XL1-Blue: DBD (PhaR 1-106)-bait on the phaP promoter, prey-PhaP on PHB granules made in vivo (phaCAB), lacZ reporter under the phaP promoter, read as beta-galactosidase activity; LB with 20 g/L glucose, 14 h, 37°C, 200 rpm

binding: binds
B1: bJun-PhaP (bZIP domain of Jun fused to PhaP) (domain or fragment)
chain: CGGRIARLEEKVKTLKAQNSELASTANMLREQVAQLKQKVMNY

binding: binds
B2: bATF2-PhaP (bZIP domain of ATF2 fused to PhaP) (domain or fragment)
chain: GRRRRAANEDPDEKRRKFLERNRAAASRCRQKRKVWVQSLEKKAEDLSSLNGQLQSEVTLLRNEVAQLKQLLLAH
